Reference: patent US11130768B2, “Bicyclic pyrazole derivatives” (Bayer Animal Health GMBH, priority 2017, dated 2021)
Some results were stated once for a whole list of compounds, not compound by compound.

Experiments:
[1] = test system: Dirofilaria immitis third-stage larvae; test: In vitro assay 4: Dirofilaria immitis (DIROIM L4), motility; details: third-stage larvae moulting to fourth-stage, 72 h incubation
[2] = test system: Litomosoides sigmodontis third-stage larvae; details: 72 h incubation

SMILES | EC50 (reduction of motility) [1] [ppm] | EC50 (reduction of motility) [2] [ppm]
Cc1nn2c(C(C)C)c(C(=O)N[C@H]3CCOc4ccccc43)sc2c1-c1ccc(F)c(F)c1 [Example 8, 7-(3,4-difluorophenyl)-N-[(4S)-3,4-dihydro-2H-chromen-4-yl]-6-methyl-3-(propan-2-yl)pyrazolo[5,1-b][1,3]thiazole-2-carboxamide] | < 0.1 | –
Cc1nn2c(C(C)C)c(C(=O)N[C@H]3CCc4ccccc43)sc2c1-c1cc(Cl)c(F)c(Cl)c1 [Example 14, 7-(3,5-dichloro-4-fluorophenyl)-N-[(1S)-2,3-dihydro-1H-inden-1-yl]-6-methyl-3-(propan-2-yl)pyrazolo[5,1-b][1,3]thiazole-2-carboxamide] | < 0.1 | –
Cc1nn2c(C(C)C)c(C(=O)N[C@H]3CCOc4ccccc43)sc2c1-c1ccc(F)c(N(C)C)c1F [Example 6, N-[(4S)-3,4-dihydro-2H-chromen-4-yl]-7-[3-(dimethylamino)-2,4-difluorophenyl]-6-methyl-3-(propan-2-yl)pyrazolo[5,1-b][1,3]thiazole-2-carboxamide] | < 0.1 | < 0.1
Cc1nn2c(C(C)C)c(C(=O)N[C@H]3CCOc4ccccc43)sc2c1-c1cccc(Cl)c1Cl [Example 2, 7-(2,3-dichlorophenyl)-N-[(4S)-3,4-dihydro-2H-chromen-4-yl]-6-methyl-3-(propan-2-yl)pyrazolo[5,1-b][1,3]thiazole-2-carboxamide] | < 0.1 | < 0.1
Cc1nn2c(C(C)C)c(C(=O)N[C@H]3CCc4ccccc43)sc2c1-c1cccc(Cl)c1Cl [Example 15, 7-(2,3-dichlorophenyl)-N-[(1S)-2,3-dihydro-1H-inden-1-yl]-6-methyl-3-(propan-2-yl)pyrazolo[5,1-b][1,3]thiazole-2-carboxamide] | < 0.1 | < 0.1
Cc1nn2c(C(C)C)c(C(=O)N[C@H]3CCOc4ccccc43)sc2c1-c1cc(Cl)c(F)c(Cl)c1 [Example 5, 7-(3,5-dichloro-4-fluorophenyl)-N-[(4S)-3,4-dihydro-2H-chromen-4-yl]-3-isopropyl-6-methylpyrazolo[5,1-b][1,3]thiazole-2-carboxamide] | < 0.1 | –
Cc1nn2c(C(C)C)c(C(=O)N[C@H]3CCOc4ccccc43)sc2c1-c1cccc(C(F)(F)F)c1F [Example 3, 7-[2-fluoro-3-(trifluoromethyl)phenyl]-N-[(4S)-3,4-dihydro-2H-chromen-4-yl]-6-methyl-3-(propan-2-yl)pyrazolo[5,1-b][1,3]thiazole-2-carboxamide] | < 0.1 | < 0.1
